Test results: article PMC10987677 (The EMBO Journal, 2024)
No constants are given. Whether binding was seen depends on the method and setting. Some results given as binding are weak or reduced against the parent protein; the word gives no strength.

Amino acid sequences for entries named in this document (tags omitted). Residues count along the entry.
UniProt Q8NCM8, residues 2-4307: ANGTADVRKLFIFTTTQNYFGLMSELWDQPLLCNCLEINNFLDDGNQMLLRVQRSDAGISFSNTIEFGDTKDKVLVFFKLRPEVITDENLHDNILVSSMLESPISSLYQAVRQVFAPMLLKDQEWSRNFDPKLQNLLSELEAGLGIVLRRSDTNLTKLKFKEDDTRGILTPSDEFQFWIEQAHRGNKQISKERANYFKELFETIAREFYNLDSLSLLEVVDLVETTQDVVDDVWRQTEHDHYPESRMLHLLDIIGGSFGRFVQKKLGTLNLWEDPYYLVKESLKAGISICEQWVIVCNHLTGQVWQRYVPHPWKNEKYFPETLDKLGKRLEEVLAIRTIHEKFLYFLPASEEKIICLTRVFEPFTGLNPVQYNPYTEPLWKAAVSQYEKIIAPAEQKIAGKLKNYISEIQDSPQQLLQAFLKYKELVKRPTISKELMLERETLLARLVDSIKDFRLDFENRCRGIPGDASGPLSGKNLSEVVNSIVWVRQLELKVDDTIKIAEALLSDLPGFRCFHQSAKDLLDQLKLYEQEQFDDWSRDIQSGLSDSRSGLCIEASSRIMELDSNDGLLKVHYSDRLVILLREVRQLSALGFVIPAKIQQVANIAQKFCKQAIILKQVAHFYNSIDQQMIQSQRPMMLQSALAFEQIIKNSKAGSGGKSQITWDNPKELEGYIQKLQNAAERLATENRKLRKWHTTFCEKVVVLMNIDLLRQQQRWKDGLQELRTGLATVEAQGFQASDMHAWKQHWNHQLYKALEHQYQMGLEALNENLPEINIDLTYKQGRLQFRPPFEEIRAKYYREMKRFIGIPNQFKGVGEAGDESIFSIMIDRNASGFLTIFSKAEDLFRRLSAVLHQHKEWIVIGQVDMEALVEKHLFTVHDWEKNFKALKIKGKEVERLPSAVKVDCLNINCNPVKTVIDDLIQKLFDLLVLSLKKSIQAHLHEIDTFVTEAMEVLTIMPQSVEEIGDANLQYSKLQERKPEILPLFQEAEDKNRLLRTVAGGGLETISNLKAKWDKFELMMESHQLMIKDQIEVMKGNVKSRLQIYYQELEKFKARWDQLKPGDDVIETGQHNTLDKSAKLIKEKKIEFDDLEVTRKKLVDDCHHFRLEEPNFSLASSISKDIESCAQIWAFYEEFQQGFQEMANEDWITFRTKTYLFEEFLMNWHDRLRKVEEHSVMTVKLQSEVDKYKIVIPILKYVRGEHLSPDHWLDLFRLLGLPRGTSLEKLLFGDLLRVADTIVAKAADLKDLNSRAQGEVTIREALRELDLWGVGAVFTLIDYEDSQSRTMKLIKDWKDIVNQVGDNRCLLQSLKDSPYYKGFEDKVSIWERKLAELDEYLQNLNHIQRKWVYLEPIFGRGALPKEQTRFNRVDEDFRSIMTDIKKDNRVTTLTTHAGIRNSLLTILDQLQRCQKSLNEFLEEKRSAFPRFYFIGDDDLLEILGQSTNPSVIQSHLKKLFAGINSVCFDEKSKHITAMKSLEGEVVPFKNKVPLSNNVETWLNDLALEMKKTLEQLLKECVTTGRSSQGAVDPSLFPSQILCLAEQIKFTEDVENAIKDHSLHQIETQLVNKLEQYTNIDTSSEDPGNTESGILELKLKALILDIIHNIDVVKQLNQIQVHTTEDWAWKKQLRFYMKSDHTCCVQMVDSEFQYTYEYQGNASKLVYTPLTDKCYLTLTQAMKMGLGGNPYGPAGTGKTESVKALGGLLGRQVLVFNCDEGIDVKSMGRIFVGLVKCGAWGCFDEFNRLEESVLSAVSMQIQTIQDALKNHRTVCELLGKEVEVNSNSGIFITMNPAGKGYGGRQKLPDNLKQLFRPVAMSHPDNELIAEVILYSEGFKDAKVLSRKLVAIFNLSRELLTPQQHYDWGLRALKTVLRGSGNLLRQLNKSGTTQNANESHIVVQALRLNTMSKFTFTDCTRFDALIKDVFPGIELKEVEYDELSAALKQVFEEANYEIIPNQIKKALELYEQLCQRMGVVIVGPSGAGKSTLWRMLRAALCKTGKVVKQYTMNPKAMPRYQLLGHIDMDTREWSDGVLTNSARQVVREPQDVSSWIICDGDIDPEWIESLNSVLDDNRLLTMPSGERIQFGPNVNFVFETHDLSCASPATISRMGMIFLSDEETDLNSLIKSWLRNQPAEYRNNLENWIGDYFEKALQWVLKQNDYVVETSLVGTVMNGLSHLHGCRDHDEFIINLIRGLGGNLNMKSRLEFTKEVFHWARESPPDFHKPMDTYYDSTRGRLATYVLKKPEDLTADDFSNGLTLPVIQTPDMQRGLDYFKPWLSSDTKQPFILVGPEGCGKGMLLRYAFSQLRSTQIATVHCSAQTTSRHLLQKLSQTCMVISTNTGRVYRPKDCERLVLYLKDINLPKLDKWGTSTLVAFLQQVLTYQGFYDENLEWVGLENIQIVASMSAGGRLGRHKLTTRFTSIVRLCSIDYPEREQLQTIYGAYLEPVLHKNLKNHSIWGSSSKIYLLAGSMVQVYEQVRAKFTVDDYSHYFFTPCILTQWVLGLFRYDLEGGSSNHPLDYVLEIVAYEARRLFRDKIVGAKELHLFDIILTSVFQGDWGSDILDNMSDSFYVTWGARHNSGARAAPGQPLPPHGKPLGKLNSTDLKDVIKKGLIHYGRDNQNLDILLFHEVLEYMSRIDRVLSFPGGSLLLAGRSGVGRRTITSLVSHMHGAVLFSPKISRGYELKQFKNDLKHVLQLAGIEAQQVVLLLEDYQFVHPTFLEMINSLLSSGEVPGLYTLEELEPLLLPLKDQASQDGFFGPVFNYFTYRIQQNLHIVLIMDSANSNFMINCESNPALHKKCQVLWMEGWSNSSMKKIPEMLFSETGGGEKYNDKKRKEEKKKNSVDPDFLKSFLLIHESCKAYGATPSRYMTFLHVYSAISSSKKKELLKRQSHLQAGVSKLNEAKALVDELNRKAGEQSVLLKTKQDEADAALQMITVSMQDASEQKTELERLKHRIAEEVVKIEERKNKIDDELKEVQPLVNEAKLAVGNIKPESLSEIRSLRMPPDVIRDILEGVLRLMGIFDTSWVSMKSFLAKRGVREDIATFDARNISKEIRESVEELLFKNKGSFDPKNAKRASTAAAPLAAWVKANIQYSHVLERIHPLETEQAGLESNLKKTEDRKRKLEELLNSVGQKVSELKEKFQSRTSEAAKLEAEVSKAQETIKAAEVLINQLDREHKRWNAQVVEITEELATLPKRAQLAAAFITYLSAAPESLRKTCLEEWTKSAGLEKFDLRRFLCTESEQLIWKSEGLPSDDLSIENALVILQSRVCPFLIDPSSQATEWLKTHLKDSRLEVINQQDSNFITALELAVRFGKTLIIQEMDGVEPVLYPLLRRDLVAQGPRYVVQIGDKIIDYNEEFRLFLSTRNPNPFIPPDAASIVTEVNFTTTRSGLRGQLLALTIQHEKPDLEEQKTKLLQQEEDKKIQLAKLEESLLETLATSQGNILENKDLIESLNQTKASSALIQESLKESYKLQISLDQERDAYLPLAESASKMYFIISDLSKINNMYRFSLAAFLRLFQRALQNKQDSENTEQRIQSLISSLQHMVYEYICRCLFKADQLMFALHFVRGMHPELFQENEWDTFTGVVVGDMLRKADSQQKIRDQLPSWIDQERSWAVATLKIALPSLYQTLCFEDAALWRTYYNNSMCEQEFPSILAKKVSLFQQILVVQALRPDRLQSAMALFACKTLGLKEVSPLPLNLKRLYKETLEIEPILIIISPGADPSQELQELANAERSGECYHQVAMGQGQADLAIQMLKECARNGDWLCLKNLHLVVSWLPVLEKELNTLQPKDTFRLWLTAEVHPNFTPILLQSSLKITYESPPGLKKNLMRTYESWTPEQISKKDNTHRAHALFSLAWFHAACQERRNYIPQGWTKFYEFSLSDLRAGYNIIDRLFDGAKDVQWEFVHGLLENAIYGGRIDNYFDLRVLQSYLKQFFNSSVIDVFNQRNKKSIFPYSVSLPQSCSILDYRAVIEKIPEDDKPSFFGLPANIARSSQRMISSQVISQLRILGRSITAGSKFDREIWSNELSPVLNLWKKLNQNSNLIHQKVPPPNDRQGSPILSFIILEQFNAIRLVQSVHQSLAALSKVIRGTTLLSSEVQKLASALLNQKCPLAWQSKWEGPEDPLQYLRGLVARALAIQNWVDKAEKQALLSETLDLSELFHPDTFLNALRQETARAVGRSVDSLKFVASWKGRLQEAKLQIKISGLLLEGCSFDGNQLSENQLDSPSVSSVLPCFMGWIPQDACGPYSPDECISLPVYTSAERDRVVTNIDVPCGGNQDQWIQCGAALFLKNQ
UniProt Q96EX3: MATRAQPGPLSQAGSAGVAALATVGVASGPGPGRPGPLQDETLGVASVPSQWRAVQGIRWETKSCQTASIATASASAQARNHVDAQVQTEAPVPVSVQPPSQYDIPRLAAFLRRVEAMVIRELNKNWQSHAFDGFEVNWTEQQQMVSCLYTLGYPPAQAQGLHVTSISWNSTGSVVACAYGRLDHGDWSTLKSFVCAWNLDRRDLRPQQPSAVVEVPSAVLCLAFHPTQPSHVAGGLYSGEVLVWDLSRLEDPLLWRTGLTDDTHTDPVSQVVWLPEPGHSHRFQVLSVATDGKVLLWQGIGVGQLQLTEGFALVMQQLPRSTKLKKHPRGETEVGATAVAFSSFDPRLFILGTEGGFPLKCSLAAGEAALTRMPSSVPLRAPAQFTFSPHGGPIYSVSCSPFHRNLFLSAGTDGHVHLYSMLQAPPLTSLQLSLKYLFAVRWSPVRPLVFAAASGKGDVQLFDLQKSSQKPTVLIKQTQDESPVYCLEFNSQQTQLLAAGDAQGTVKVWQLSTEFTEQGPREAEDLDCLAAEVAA
UniProt Q8WVS4: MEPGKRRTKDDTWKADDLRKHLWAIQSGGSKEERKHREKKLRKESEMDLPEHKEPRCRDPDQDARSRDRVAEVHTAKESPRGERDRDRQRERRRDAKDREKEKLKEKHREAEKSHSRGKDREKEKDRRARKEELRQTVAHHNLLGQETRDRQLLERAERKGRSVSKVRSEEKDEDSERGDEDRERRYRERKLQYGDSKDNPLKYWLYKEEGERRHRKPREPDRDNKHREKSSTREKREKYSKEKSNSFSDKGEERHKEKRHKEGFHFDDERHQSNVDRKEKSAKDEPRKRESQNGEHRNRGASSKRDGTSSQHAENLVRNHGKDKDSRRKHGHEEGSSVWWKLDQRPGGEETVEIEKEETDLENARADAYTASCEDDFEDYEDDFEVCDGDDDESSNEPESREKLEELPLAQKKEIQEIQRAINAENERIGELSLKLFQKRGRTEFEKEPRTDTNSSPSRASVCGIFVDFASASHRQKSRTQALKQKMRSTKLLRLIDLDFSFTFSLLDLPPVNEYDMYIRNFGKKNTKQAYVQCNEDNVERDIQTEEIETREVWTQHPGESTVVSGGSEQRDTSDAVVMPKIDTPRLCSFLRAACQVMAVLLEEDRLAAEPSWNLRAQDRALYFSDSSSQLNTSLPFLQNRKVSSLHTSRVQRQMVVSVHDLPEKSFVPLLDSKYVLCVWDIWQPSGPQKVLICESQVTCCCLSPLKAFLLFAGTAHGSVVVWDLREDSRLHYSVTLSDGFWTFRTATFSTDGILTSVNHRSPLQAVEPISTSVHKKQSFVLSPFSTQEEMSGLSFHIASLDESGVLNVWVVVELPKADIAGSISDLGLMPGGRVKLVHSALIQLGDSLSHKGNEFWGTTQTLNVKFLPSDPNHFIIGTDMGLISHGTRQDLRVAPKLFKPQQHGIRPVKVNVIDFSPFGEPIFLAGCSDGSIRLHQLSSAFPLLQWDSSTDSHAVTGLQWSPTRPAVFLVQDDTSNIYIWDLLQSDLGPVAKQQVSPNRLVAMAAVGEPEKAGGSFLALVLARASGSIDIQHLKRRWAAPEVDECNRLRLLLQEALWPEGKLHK

target: dynein-2 heavy chain (DYNC2H1) (UniProt Q8NCM8); assay: cryo-EM structure; purified dynein-2 complex (eight subunits co-expressed in sf9); consensus map of tail particles at 3.9 Å global resolution, local refinements of WDR34 and WDR60 with DYNC2H1; both purified

| binding | Substance |
| --- | --- |
| binds | dynein-2 heavy chain (DYNC2H1) (from UniProt Q8NCM8 2-4307) |
| binds | dynein-2 intermediate chain WDR34/DYNC2I2 (from UniProt Q96EX3 1-536) |
| binds | dynein-2 intermediate chain WDR60/DYNC2I1 (from UniProt Q8WVS4 1-1066) |
